In PubChem BioAssay AID2685 (National Center for Advancing Translational Sciences (NCATS), 2010):
The list shows a part of the results. Further columns of the screen follow, without active or inactive calls. The list favours compounds with an active or inconclusive main result. Potencies come from curve fits of mixed quality, noted in brackets.

Assay: qHTS Assay for Lipid Storage Modulators in Drosophila S3 Cells;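 for cell number change: cells counted by Cell Tracker Red CMTPX staining in the red channel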
Settings: BODIPY lipid droplet fluorescence, 18-24 h; for cell number change: measured here: cell count max response, cells fed with added oleic acid
Outline: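 Laser-scanning cytometry quantifies lipid droplet accumulation (500–530 nm total intensity; droplet/cell object ratio) in oleic acid-fed (400 uM added) Drosophila S3 cells treated with a concentration series. 20 uM Triacsin C defined 100% inhibition.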

[1] = measured here: lipid fluorescence (Fed channel) AC50, cells fed with added oleic acid
[2] = measured here: cell number channel AC50, cells fed with added oleic acid

Structure (SMILES)	cell number change [%]	AC50 [1]	AC50 [2]
O=C(OC(C(=O)NCc1ccccc1)c1ccccc1F)c1ccco1 (configuration not stated)	20.5		
COc1cccc2cc(C(=O)NNC(=O)c3ccc(Br)cc3)c(=O)oc12	-2.57	16.4 µM [falling, partial curve]	
COc1ccccc1C(=O)N(Cc1cccs1)C1CCS(=O)(=O)C1 (configuration not stated)	-14.1	29.1 µM [falling, single point]	
Cc1ccc(C(=O)n2c(=S)nc3ccccn32)cc1	24		6.51 µM [rising, single point]
CCOc1ccc(-n2c(=S)sc3c(=O)[nH]c(SCC(=O)C(C)(C)C)nc32)cc1	-21.6	0.517 µM [falling, single point]	0.58 µM [falling, single point]
Cc1cc(=O)oc2cc(OCC(=O)c3ccccc3)ccc12	4.91		
CCOc1ccccc1N1CCN(C(=O)NCc2ccc(F)cc2)CC1	-0.901	0.58 µM [falling, single point]	
COC(=O)CNC(=O)CSc1nc2sccc2c(=O)n1-c1ccccc1	-0.417		
CCOC(=O)c1ccc(S(=O)(=O)N2CCN(CC3CC=CCC3)CC2)cc1 (configuration not stated)	-9.42	0.146 µM [falling, full curve]	
COc1ccc(OC)c(S(=O)(=O)NCc2csc(-c3ccccc3)n2)c1	167	20.6 µM [rising, partial curve]	
COc1cc(Cl)cc2c1Sc1ccccc1/C2=C/CCN(C)C		18.4 µM [falling, single point]	
Cn1c(SCC(=O)Nc2nc3ccccc3s2)nnc1-c1ccccc1	6.86	0.206 µM [falling, full curve, poor fit]	0.651 µM [falling, single point]
O=C(CCC(=O)N1CCN(S(=O)(=O)c2cccc(F)c2)CC1)c1cccs1	34.6		
COc1ccc(C(=O)N/N=C/c2ccc(OC)c(CSc3ccccn3)c2)cc1	30.8	1.03 µM [rising, full curve]	2.31 µM [rising, full curve]
Cc1ccc2c(c1)N(Cc1ccc3c(c1)OCO3)C(=O)C(C)O2 (configuration not stated)	0.593	0.092 µM [rising, full curve, poor fit]	0.206 µM [rising, full curve, poor fit]
O=C(CCCN1C(=O)/C(=C\c2cccs2)SC1=S)NNC(=O)c1ccncc1		6.51 µM [rising, single point]	5.17 µM [rising, single point]
O=C(Nc1nnc(C2CC2)s1)C1Cc2ccccc2CN1C(=O)c1ccco1 (configuration not stated)	31.6		29.1 µM [rising, single point]
CCOc1ccccc1Oc1coc2cc(OC)ccc2c1=O	-20.7	29.1 µM [falling, single point]	
Cc1ccccc1Cn1c2ccccc2c2cnn(CC(=O)NCc3ccco3)c(=O)c21	-18.1	0.461 µM [rising, single point]	
O=C(c1ccc(C(F)(F)F)cc1)N1CCC(=O)N(C(COCc2ccc(C(F)(F)F)cc2)Cc2ccccc2)CC1 (configuration not stated)	12	3.66 µM [falling, full curve, poor fit]	
OC(COc1c(F)cc(Br)cc1F)CN1CCOCC1 (configuration not stated)	11.3	3.66 µM [rising, full curve]	
CCOC(=O)c1c(N)sc2c1CCCC2	-30.3		29.1 µM [falling, single point]
NS(=O)(=O)c1ccc(NC(=O)CSc2nc3ccccc3n2-c2ccccc2)cc1	-44.4	23.1 µM [falling, partial curve, poor fit]	11.6 µM [falling, partial curve, poor fit]
CN(C)C(=O)COc1ncnc2sc(-c3ccccc3)cc12	-2.78		
O=S(=O)(c1ccc(N2CCCC2)cc1)C(F)(F)F	-154		29.1 µM [falling, single point]
CC(C)C(=O)Nc1ccc(-c2nc3cccnc3o2)cc1	104	0.411 µM [rising, full curve]	7.31 µM [rising, partial curve]
Cc1ccc2c(c1)N(Cc1ccc([N+](=O)[O-])cc1)C=NS2(=O)=O	0.709	1.16 µM [falling, single point]	
O=C(Nc1cc(C(F)(F)F)ccc1N1CCOCC1)c1cccs1	30.6	8.2 µM [rising, partial curve, poor fit]	32.6 µM [rising, single point]

One compound at a time, as listed above. Values in the order: cell number change [%]	AC50 [1]	AC50 [2]
`COc1ccc(C(=O)N/N=C/c2ccc(OC)c(CSc3ccccn3)c2)cc1` reads 30.8	1.03 µM [rising, full curve]	2.31 µM [rising, full curve]
`Cc1ccc2c(c1)N(Cc1ccc3c(c1)OCO3)C(=O)C(C)O2` (configuration not stated) reads 0.593	0.092 µM [rising, full curve, poor fit]	0.206 µM [rising, full curve, poor fit]
